No constants are given. Whether binding was seen depends on the method and setting. Some entries that bind do so weakly or less than the wild type.
What was measured:
[1] = biological target: NCoR corepressor, endogenous, in tissues of treated mice (mouse) (UniProt Q60974); assay: ChIP on nGRE regions, mice treated with RU24858 or Dex (co-occupancy of a DNA element)
[2] = biological target: SMRT corepressor, endogenous, in tissues of treated mice (mouse) (UniProt Q9WU42); assay: as above
[3] = biological target: NCoR corepressor, endogenous, in tissues of treated mice (mouse) (UniProt Q60974); assay: ChIP on minsr IR1 nGRE1 and 2, Dex-treated mice (co-occupancy of a DNA element)
[4] = biological target: SMRT corepressor, endogenous, in tissues of treated mice (mouse) (UniProt Q9WU42); assay: as above
[5] = biological target: SMRT corepressor, endogenous, in tissues of treated mice (mouse) (UniProt Q9WU42); assay: ChIP on mK5 IR1 nGRE3 region, epidermis of Dex-treated mice (co-occupancy of a DNA element)

Protein sequences, listed by entry. Tags and fused reporters are not part of them.
UniProt Q60974: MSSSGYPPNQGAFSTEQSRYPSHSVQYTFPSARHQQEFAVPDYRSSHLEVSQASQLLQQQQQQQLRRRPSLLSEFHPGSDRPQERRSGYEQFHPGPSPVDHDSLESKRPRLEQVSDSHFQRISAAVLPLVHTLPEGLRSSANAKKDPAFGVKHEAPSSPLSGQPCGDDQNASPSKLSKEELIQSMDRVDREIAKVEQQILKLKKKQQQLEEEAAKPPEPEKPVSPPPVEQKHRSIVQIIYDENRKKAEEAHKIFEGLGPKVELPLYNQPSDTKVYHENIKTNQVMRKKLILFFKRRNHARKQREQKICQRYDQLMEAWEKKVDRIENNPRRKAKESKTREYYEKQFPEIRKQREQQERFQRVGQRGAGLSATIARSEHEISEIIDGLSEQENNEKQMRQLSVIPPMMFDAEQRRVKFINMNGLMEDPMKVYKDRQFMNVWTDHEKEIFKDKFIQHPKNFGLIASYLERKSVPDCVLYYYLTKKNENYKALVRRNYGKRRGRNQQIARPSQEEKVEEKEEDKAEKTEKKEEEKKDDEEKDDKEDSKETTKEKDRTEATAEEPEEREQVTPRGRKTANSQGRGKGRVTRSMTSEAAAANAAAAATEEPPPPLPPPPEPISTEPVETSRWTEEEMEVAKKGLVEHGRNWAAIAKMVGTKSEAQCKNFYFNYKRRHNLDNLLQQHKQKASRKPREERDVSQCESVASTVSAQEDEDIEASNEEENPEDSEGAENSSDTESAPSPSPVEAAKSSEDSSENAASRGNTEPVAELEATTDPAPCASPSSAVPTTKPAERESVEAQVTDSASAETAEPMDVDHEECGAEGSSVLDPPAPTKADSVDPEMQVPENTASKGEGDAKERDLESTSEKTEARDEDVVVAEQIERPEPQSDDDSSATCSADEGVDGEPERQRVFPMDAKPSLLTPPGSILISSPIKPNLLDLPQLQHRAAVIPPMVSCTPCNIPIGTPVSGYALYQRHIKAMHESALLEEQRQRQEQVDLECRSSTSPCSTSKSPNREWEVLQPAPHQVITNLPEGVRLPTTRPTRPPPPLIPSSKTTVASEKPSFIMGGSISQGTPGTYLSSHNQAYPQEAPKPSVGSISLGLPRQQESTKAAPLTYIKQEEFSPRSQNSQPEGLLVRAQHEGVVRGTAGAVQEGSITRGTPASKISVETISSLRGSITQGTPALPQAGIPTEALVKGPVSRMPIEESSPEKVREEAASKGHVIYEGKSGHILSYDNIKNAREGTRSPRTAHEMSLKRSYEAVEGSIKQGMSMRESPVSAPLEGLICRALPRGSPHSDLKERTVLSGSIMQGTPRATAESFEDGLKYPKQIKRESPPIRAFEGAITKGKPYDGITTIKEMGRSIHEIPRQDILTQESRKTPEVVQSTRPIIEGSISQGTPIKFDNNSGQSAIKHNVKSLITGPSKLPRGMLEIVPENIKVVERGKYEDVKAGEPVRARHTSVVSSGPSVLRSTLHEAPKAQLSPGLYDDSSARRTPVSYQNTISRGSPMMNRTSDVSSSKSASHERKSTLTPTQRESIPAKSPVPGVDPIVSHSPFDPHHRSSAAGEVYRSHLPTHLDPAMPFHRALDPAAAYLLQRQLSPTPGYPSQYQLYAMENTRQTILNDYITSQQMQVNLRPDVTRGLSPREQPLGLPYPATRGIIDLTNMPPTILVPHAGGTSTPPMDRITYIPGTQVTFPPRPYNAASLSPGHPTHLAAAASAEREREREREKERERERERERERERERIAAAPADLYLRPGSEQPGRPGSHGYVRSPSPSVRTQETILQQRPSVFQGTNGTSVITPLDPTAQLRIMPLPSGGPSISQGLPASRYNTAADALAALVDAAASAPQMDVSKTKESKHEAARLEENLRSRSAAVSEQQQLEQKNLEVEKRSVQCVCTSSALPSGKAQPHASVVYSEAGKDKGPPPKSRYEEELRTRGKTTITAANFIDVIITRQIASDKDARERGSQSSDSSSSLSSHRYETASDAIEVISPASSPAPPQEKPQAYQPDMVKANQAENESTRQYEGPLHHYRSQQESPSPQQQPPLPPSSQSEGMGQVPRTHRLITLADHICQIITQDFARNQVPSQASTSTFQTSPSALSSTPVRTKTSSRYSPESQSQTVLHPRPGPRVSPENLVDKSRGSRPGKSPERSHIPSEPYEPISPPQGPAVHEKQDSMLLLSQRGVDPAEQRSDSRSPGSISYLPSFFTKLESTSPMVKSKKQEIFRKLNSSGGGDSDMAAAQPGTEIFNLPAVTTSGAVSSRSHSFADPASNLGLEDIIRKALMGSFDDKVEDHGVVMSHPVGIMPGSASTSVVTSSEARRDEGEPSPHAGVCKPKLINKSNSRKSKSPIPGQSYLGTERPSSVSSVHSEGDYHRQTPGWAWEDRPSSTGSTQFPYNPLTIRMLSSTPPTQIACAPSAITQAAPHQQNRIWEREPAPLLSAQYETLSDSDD
UniProt Q9WU42: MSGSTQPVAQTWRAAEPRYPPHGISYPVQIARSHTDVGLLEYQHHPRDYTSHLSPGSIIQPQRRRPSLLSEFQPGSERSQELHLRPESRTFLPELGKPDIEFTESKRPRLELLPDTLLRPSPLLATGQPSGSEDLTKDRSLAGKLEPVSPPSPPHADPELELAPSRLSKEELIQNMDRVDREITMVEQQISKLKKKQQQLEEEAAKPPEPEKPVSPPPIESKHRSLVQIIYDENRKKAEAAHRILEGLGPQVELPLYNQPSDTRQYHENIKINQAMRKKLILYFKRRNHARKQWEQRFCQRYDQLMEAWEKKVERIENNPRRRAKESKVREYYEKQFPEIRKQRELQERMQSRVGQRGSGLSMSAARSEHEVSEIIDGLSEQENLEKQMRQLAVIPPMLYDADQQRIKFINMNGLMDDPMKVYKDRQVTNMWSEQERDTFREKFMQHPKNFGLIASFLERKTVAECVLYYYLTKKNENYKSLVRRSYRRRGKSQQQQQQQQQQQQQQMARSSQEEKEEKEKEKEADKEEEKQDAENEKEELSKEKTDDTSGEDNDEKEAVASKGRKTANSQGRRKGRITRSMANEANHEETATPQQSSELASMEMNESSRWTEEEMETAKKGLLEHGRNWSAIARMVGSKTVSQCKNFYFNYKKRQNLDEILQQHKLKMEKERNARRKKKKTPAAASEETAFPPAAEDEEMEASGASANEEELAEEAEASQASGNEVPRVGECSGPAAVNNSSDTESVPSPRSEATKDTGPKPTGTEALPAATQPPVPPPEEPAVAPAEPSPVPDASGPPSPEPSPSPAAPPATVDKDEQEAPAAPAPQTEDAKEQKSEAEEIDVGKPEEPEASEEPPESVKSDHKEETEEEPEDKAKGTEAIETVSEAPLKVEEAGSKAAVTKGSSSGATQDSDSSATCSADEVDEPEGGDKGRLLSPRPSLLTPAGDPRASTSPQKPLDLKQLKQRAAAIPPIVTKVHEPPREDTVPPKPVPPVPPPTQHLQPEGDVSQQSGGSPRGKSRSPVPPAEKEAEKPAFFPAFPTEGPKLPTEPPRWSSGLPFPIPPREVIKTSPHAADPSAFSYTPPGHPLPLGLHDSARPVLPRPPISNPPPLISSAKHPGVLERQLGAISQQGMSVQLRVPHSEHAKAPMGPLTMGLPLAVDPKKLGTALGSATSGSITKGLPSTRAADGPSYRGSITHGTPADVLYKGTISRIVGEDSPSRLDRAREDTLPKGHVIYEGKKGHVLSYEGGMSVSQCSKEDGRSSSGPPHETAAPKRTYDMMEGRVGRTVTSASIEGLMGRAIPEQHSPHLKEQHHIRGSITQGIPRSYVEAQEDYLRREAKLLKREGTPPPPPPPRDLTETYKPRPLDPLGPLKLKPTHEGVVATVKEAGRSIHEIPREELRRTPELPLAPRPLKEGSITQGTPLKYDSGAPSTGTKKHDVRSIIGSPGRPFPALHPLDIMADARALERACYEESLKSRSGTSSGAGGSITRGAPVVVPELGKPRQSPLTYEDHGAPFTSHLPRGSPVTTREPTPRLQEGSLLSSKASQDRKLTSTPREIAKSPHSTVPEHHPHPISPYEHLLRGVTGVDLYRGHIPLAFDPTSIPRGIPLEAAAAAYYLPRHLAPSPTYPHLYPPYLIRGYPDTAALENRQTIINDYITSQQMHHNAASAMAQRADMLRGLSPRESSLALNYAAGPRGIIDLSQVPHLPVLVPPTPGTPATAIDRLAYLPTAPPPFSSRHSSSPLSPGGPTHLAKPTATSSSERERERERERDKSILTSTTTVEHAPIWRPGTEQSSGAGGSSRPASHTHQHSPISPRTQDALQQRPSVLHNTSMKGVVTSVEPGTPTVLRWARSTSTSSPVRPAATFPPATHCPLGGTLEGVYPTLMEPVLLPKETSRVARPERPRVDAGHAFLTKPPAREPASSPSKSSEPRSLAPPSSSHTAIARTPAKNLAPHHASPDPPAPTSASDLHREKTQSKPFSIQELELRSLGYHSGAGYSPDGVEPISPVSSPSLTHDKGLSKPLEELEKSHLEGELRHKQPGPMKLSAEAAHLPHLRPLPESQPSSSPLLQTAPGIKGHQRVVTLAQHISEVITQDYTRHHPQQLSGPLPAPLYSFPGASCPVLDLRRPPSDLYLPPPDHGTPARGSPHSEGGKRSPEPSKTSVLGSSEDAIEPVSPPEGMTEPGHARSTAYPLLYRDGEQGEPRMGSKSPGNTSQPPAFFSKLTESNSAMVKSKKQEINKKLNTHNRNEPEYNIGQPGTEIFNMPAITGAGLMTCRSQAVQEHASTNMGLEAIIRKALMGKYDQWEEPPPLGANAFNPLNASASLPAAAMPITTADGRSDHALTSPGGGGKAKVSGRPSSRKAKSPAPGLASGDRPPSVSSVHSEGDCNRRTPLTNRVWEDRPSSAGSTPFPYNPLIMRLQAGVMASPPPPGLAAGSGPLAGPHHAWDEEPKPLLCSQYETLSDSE
UniProt P06537: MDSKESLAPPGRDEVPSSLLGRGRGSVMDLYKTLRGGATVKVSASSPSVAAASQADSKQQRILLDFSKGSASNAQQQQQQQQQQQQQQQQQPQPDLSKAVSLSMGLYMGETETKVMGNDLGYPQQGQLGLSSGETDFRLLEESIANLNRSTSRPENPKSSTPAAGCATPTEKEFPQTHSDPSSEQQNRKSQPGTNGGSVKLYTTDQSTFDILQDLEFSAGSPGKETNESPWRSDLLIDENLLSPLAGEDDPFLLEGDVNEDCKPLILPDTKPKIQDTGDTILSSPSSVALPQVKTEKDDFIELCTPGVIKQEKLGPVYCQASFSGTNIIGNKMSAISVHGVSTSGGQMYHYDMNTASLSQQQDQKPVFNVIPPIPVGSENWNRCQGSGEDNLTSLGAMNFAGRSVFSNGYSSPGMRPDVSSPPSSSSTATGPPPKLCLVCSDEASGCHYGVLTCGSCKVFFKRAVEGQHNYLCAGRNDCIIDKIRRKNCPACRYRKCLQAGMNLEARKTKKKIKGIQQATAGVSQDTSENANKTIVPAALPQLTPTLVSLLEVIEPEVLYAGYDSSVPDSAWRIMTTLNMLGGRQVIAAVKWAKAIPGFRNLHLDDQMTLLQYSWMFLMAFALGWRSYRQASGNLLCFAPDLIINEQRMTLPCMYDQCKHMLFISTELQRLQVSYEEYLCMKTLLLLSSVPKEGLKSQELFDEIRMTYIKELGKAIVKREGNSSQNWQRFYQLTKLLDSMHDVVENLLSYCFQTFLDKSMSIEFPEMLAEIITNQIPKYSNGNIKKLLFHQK

Measured: binding

glucocorticoid receptor (GR), endogenous, in tissues of Dex- or RU24858-treated mice (from UniProt P06537 1-792)
binds: all assays above

From patent publication US20140093884A1, “Process for Identifying Novel Anti-Inflammatory Molecules with Reduced Direct Transrepression of Genes Induced by Glucocorticoids” (UNIVERSITE DE STRASBOURG, priority 2011, published 2014)
